Measurements reported in PubChem BioAssay AID1259308 (NCATS, 2017)
Test: 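Genes whose loss raises luciferase production in HEK293 cells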 (primary screen). Cell system: human HEK293 embryonic kidney cells stably expressing firefly luciferase (HEK-CMV-Luc2-Hygro). Reagents: single siRNA against human genes, 0.8 pmol siRNA per well. Timing: 72 h. Measured: 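Reporter luminescence and viable-cell signal on separate replicate plates, given as percent of non-targeting control and median/MAD z-scores, plus per-cell luciferase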. Reading the numbers: total luciferase, z-score and total luciferase, % of control: higher = more reporter protein produced; luciferase per cell, z-score: higher = more reporter output per viable cell. Rule for the call: 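Active when the median/MAD z-score for overall luciferase is greater than 3; a gene was taken forward for validation with new siRNAs if at least two of its three siRNAs passed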. Calls: active = raised luciferase; inactive = no rise.
Here is an unselected part of about 59,000 reagents tested. Of all reagents, about 1,510 (2.6%) were called active. 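Calls use total luciferase alone and ignore viability, so some active siRNAs may act by altering cell number.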 Reagents against one gene are numbered here. Further read-outs or replicates are left out here. No sequences are given here.

no.	gene symbol	reagent no.	total luciferase, z-score	total luciferase, % of control	luciferase per cell, z-score	call
1	OR6F1	1	1.48	111	1.68	inactive
2	OR6F1	2	0.0458	82.8	0.672	inactive
3	OR6F1	3	-0.583	70.3	-0.416	inactive
4	ABRA	1	-0.185	78.2	-0.428	inactive
5	ABRA	2	0.72	96.2	0.281	inactive
6	ABRA	3	1.52	112	0.158	inactive
7	PIGYP1	1	-0.723	67.5	-1.08	inactive
8	PIGYP1	2	0.625	94.3	0.67	inactive
9	PIGYP1	3	1.26	107	1.18	inactive
10	MYL3	1	-0.647	69	0.0546	inactive
11	MYL3	2	-1.33	55.4	-0.827	inactive
12	MYL3	3	-0.328	75.4	0.0391	inactive
13	SAR1AP1	1	2.57	133	1.64	inactive
14	SAR1AP1	2	0.32	88.3	0.606	inactive
15	SAR1AP1	3	-0.749	67	-0.508	inactive
16	GAS2L2	1	-0.291	76.1	-0.157	inactive
17	GAS2L2	2	0.0544	83	0.155	inactive
18	GAS2L2	3	-1.62	49.6	-1.33	inactive
19	ZNF101	1	1.88	119	1.14	inactive
20	ZNF101	2	-2.05	41	-0.176	inactive
21	ZNF101	3	-2.55	31.2	-2.79	inactive
22	F12	1	-0.835	65.3	-1.2	inactive
23	F12	2	0.517	92.2	2.28	inactive
24	F12	3	-0.137	79.2	-0.684	inactive
25	SLC29A4	1	-1.13	59.3	-0.509	inactive
26	SLC29A4	2	-1.76	47	-2.29	inactive
27	SLC29A4	3	1.83	118	1.38	inactive
28	TRAPPC13P1	1	0.533	92.5	0.368	inactive
29	TRAPPC13P1	2	0.334	88.5	0.603	inactive
30	TRAPPC13P1	3	0.81	98	1.12	inactive
31	ZNF438	1	-1.35	55	-1.02	inactive
32	ZNF438	2	0.247	86.8	-0.214	inactive
33	ZNF438	3	-1.66	48.9	-2.61	inactive
34	DCAF16	1	-0.0968	80	-0.154	inactive
35	DCAF16	2	-0.572	70.5	-0.659	inactive
36	DCAF16	3	-0.541	71.1	-1.06	inactive
37	CNTN1	1	1.36	109	1.58	inactive
38	CNTN1	2	-0.577	70.4	-0.0351	inactive
39	CNTN1	3	-0.633	69.3	-0.0816	inactive
40	MOB3C	1	3.45	151	2.02	active
41	MOB3C	2	-0.716	67.7	0.998	inactive
42	MOB3C	3	-0.427	73.4	-0.143	inactive
43	AADACL2	1	-1.1	60	-0.51	inactive
44	AADACL2	2	1.23	106	1.4	inactive
45	AADACL2	3	0.277	87.4	-0.0375	inactive
46	GRAPL-AS1	1	1.13	104	1.24	inactive
47	GRAPL-AS1	2	0.341	88.7	0.415	inactive
48	GRAPL-AS1	3	0.284	87.5	-0.335	inactive
49	MNS1	1	-0.367	74.6	-0.268	inactive
50	MNS1	2	0.84	98.6	0.211	inactive
51	MNS1	3	-0.473	72.5	-0.0451	inactive
52	STAB2	1	-0.287	76.2	0.0873	inactive
53	STAB2	2	2.02	122	1.17	inactive
54	STAB2	3	0.416	90.2	0.0594	inactive
55	GALNT6	1	0.635	94.5	0.21	inactive
56	GALNT6	2	-2.46	33	-2.73	inactive
57	GALNT6	3	2.01	122	1.75	inactive

A portion from the list above, for reference:
no.	gene symbol	reagent no.	total luciferase, z-score	total luciferase, % of control	luciferase per cell, z-score	call
25	SLC29A4	1	-1.13	59.3	-0.509	inactive
26	SLC29A4	2	-1.76	47	-2.29	inactive
27	SLC29A4	3	1.83	118	1.38	inactive
28	TRAPPC13P1	1	0.533	92.5	0.368	inactive
29	TRAPPC13P1	2	0.334	88.5	0.603	inactive
30	TRAPPC13P1	3	0.81	98	1.12	inactive
